Values from PubChem BioAssay AID1259258 (Sanger Institute, 2017).
The whole screen tested 160 reagents; below is a random part of them. 40 of all reagents (25%) were called active. 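Each row is one of four siRNAs per gene; a gene counts as confirmed only when several of its siRNAs show synergy.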 The numbers tell different reagents against one gene apart. Viability is capped at 1. Not stated in the record: the amount of reagent, the time to read-out.

Screen: 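Single siRNAs acting synergistically with drugs against colorectal cancer cells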 (follow-up of hits)
Cells: human SW48 colorectal cancer cells
Reagent: single siRNA against human genes
Challenge: anchor drug cetuximab 5 µg/ml, trametinib 10 nM or BYL719 1 µM, or DMSO vehicle alone; assay length not stated
Measured: 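Cell viability after siRNA plus DMSO, cetuximab 5 µg/ml, trametinib 10 nM or BYL719 1 µM, scaled to non-targeting pool 2 and replicate-averaged; synergy score weighs combined against single effects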
Scale: synergy score with trametinib and synergy score with BYL719 and synergy score with cetuximab: higher = stronger synergy, more killing than expected; viability with siRNA and DMSO only and viability with siRNA plus trametinib: higher = more viable cells
Rule for the call: 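Hit when the synergy score is above 0.10 for at least one of trametinib, BYL719 or cetuximab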

target gene | reagent no. | synergy score with trametinib | synergy score with BYL719 | synergy score with cetuximab | viability with siRNA and DMSO only (fraction of control) | viability with siRNA plus trametinib (fraction of control) | activity call
NLK | 1 | -0.208 | -0.186 | -0.203 | 1 | 0.8 | inactive
NLK | 2 | 0.229 | -0.0189 | -0.028 | 0.675 | 0.17 | active
NLK | 3 | -0.0771 | -0.153 | 0.0847 | 1 | 0.669 | inactive
NLK | 4 | -0.225 | -0.0983 | -0.111 | 1 | 0.816 | inactive
PRAG1 | 1 | -0.0326 | -0.127 | -0.126 | 0.85 | 0.536 | inactive
PRAG1 | 2 | 0.132 | 0.246 | 0.0936 | 0.959 | 0.435 | active
PRAG1 | 3 | -0.189 | -0.0707 | -0.21 | 0.844 | 0.688 | inactive
PRAG1 | 4 | -0.082 | -0.0753 | -0.279 | 0.972 | 0.657 | inactive
MAP3K8 | 1 | -0.111 | -0.0349 | -0.259 | 1 | 0.702 | inactive
MAP3K8 | 2 | 0.0336 | 0 | 0.0279 | 0.74 | 0.404 | inactive
MAP3K8 | 3 | -0.0666 | -0.142 | -0.129 | 0.801 | 0.54 | inactive
MAP3K8 | 4 | -0.142 | -0.0382 | -0.0171 | 1 | 0.733 | inactive
ACVR1 | 1 | -0.306 | -0.305 | -0.257 | 1 | 0.898 | inactive
ACVR1 | 2 | -0.0545 | -0.0615 | -0.112 | 1 | 0.646 | inactive
ACVR1 | 3 | -0.225 | -0.316 | -0.274 | 1 | 0.816 | inactive
ACVR1 | 4 | 0.0191 | -0.114 | -0.212 | 1 | 0.572 | inactive
STK36 | 1 | 0.00895 | -0.0473 | -0.0668 | 0.742 | 0.43 | inactive
STK36 | 2 | -0.244 | -0.2 | -0.227 | 0.986 | 0.827 | inactive
STK36 | 3 | 0.114 | -0.0982 | -0.22 | 0.969 | 0.46 | active
STK36 | 4 | -0.168 | -0.194 | -0.192 | 0.903 | 0.702 | inactive
CDK6 | 1 | -0.021 | -0.0918 | -0.154 | 1 | 0.613 | inactive
CDK6 | 2 | 0.0323 | 0.0237 | -0.169 | 0.827 | 0.457 | inactive
CDK6 | 3 | 0.148 | 0.0687 | 0.212 | 0.97 | 0.426 | active
CDK6 | 4 | 0.0689 | 0.029 | -0.085 | 0.934 | 0.483 | inactive

Laid out differently: results already given.
target gene	reagent no.	synergy score with trametinib	synergy score with BYL719	synergy score with cetuximab	viability with siRNA and DMSO only (fraction of control)	viability with siRNA plus trametinib (fraction of control)	activity call
ACVR1	3	-0.225	-0.316	-0.274	1	0.816	inactive
ACVR1	4	0.0191	-0.114	-0.212	1	0.572	inactive
STK36	1	0.00895	-0.0473	-0.0668	0.742	0.43	inactive
STK36	2	-0.244	-0.2	-0.227	0.986	0.827	inactive
STK36	3	0.114	-0.0982	-0.22	0.969	0.46	active
STK36	4	-0.168	-0.194	-0.192	0.903	0.702	inactive
CDK6	1	-0.021	-0.0918	-0.154	1	0.613	inactive

Additional results follow:
target gene | reagent no. | synergy score with trametinib | synergy score with BYL719 | synergy score with cetuximab | viability with siRNA and DMSO only (fraction of control) | viability with siRNA plus trametinib (fraction of control) | activity call
MARK3 | 1 | -0.0888 | -0.127 | -0.16 | 1 | 0.68 | inactive
MARK3 | 2 | -0.161 | -0.104 | 0.0344 | 1 | 0.753 | inactive
MARK3 | 3 | -0.0478 | -0.0813 | -0.0536 | 0.711 | 0.468 | inactive
MARK3 | 4 | 0.116 | -0.0436 | -0.00399 | 0.758 | 0.333 | active
RPS6KA4 | 1 | 0.0266 | 0.0105 | -0.0233 | 1 | 0.565 | inactive
RPS6KA4 | 2 | 0.0634 | 0.0589 | 0.0902 | 1 | 0.528 | inactive
RPS6KA4 | 3 | -0.0637 | -0.0538 | -0.081 | 0.806 | 0.541 | inactive
RPS6KA4 | 4 | 0.0756 | 0.05 | -0.023 | 0.943 | 0.483 | inactive
CSNK2A2 | 1 | -0.141 | -0.258 | -0.227 | 1 | 0.732 | inactive
CSNK2A2 | 2 | -0.127 | -0.032 | -0.0931 | 0.43 | 0.381 | inactive
CSNK2A2 | 3 | -0.0282 | -0.105 | -0.0622 | 0.863 | 0.539 | inactive
CSNK2A2 | 4 | 0.166 | -0.101 | 0.00704 | 0.646 | 0.216 | active
MPP3 | 1 | 0.0555 | 0.0535 | -0.0791 | 0.835 | 0.439 | inactive
MPP3 | 2 | 0.344 | -0.00325 | 0.0305 | 0.992 | 0.243 | active
MPP3 | 3 | 0.192 | 0.189 | -0.0267 | 0.801 | 0.281 | active
MPP3 | 4 | 0.182 | 0.0401 | 0.0256 | 0.619 | 0.184 | active
PFKFB3 | 1 | 0.0294 | -0.053 | -0.0857 | 1 | 0.562 | inactive
PFKFB3 | 2 | -0.00421 | 0.0172 | 0.0239 | 0.783 | 0.467 | inactive
PFKFB3 | 3 | -0.173 | -0.0465 | -0.0207 | 1 | 0.764 | inactive
PFKFB3 | 4 | 0.00604 | 0.0945 | 0.0776 | 0.976 | 0.571 | inactive
HUNK | 1 | 0.0532 | 0.0424 | -0.0522 | 0.781 | 0.409 | inactive
HUNK | 2 | 0.0794 | -0.0591 | 0.0105 | 0.48 | 0.205 | inactive
HUNK | 3 | 0.115 | -0.0158 | -0.0134 | 1 | 0.477 | active
HUNK | 4 | 0.0964 | 0.0955 | 0.196 | 0.917 | 0.446 | active
GUCY2D | 1 | 0.0154 | -0.0575 | -0.136 | 1 | 0.576 | inactive
GUCY2D | 2 | 0.0296 | 0.0311 | 0.0321 | 1 | 0.562 | inactive
GUCY2D | 3 | 0.0705 | -0.0264 | -0.186 | 0.886 | 0.454 | inactive
GUCY2D | 4 | -0.226 | -0.317 | -0.274 | 1 | 0.818 | inactive
